This assay is described as follows: qHTS Assay to Find Inhibitors of Chronic Active B-Cell Receptor Signaling. As to conditions: ABC-DLBCL IkBa-CBG/CBR reporter, luminescence ratio (green luciferase fused to IkBa over red control in TMD8 lymphoma cells), 4 h. Summed up:
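Doxycycline induced both beetle luciferases in TMD8 lymphoma cells; IKK-driven degradation limits the IkappaBalpha-fused green signal, while red luminescence normalises for cell number and nonspecific effects. Compounds tested up to 46 uM, 4 hrs.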

[1] abbreviates: measured here: CBR red luminescence, cell number.
Setting [2] is: measured here: IkBa-CBG green luminescence.

The other results are listed elsewhere or left out. Shown are side measurements of this screen, not its main read-out; they come without a call. Compounds called inactive in the main read-out are mostly missing here. The note in brackets gives the kind of curve behind each potency; many fits are weak.

In the case of `CSc1nc(-c2ccc(C)cc2)nc(N)c1C#N`, under setting [1], the half-maximal activity concentration (AC50) (as a rule, the concentration giving half of the maximal activity seen) was 0.355 µM [falling, full curve, poor fit].
For `CC(C)OCCCN1CN(S(=O)(=O)c2cccs2)c2nc3ccccc3nc21`, under setting [1], the half-maximal activity concentration (AC50) was 3.55 µM [rising, single point].
Still for that read-out and setting: in the case of `COc1ccc(NC(=S)N(CCc2c(C)[nH]c3ccc(C)cc23)Cc2ccco2)cc1` it was 29.1 µM [falling, single point]; in that of `COc1ccc(NC(=O)C2CCC2)cc1S(=O)(=O)Nc1cc(C)ccc1Br`, 29.1 µM [falling, single point].
Turning to `Cc1ccc(CN(C)C(=O)c2ccccc2Oc2ccccc2)o1`, the AC50 under setting [1] is 7.08 µM [falling, partial curve, poor fit].
The same measure, in the same setting: with `CCOc1ccc(N2C(=O)c3ccc(C(=O)OCC(=O)N(CC)C4CCS(=O)(=O)C4)cc3C2=O)cc1` (stereo unspecified) the figure was 7.08 µM [falling, partial curve]; with `CSc1nnnn1-c1ccc(C)c(Cl)c1`, 25.9 µM [rising, single point]; with `O=C(N/N=C/c1ccc(Br)cc1)c1ccc(F)cc1`, 10.3 µM [falling, partial curve].
Consider `Cc1oc(-c2ccccc2)cc1C(=O)NC(Cc1c[nH]c2ccccc12)C(=O)O` (stereo unspecified), for which the half-maximal activity concentration (AC50) was 0.0517 µM [rising, full curve] under setting [1] and 0.058 µM [rising, full curve] under setting [2].
Consider `Cc1ccc(CC2CC(=O)N(c3ccc(C)cc3)C2=O)cc1` (stereo unspecified), for which the concentration at half-maximal activity (AC50) under setting [1] is 35.5 µM [rising, single point].
With `Cc1cccc(NC(=O)c2cc(NC(=O)c3ccco3)ccc2N2CCCCC2)c1`, the AC50 under setting [1] was 0.366 µM [falling, partial curve, poor fit].
With `CCOc1cc(CNCCO)cc(Br)c1OCc1ccccc1Cl`, the AC50 under setting [1] was 35.5 µM [falling, single point] and the AC50 under setting [2] is 35.5 µM [rising, partial curve, poor fit].
For `O=C1/C(=C/c2cccs2)CCC1C1CCCC1` (stereo unspecified), the AC50 under setting [1] is 1.58 µM [rising, full curve, poor fit].
Regarding `O=c1cc(-c2ccc(O)cc2)oc2cc(O)c(C3OC(CO)C(O)C(O)C3O)c(O)c12` (stereo unspecified), the half-maximal activity concentration (AC50) under setting [1] is 25.1 µM [rising, single point].
Still for that read-out and setting: in the case of `O=C(COc1nc2ccccc2nc1N1CCOCC1)Nc1cccc(S(=O)(=O)N2CCCCC2)c1` it was 29.1 µM [falling, single point]; in that of `CN(Cc1ccccc1)Cc1nc2scc(-c3ccccc3)c2c(=O)[nH]1`, 2.51 µM [rising, partial curve, poor fit].
For `O=S(=O)(c1ccc(Nc2ccc(-c3ccc4c(c3)OCCO4)nn2)cc1)N1CCCC1`, the concentration at half-maximal activity (AC50) under setting [1] is 23.1 µM [falling, single point].
`COCCn1c(SCC(=O)Nc2nc(C)cs2)nnc1C(C)C`: under setting [1], the half-maximal activity concentration (AC50) was 7.94 µM [falling, partial curve].
Same read-out and setting: with `COc1ccc2cc(/C=C3\SC(=S)NC3=O)c(N3CCOCC3)nc2c1` the figure was 0.82 µM [rising, full curve, poor fit].
As to `Cc1ccc(S(=O)(=O)Nc2cccc(-c3ccc4nncn4n3)c2)cc1`, the AC50 by setting is: under setting [1], 29.1 µM [rising, single point]; under setting [2], 11.6 µM [falling, partial curve].
Consider `Cc1cc(C)c2c(CN3CCCCC3C)cc(=O)oc2c1` (stereo unspecified), for which the half-maximal activity concentration (AC50) under setting [1] is 14.1 µM [rising, single point].
Still for that read-out and setting: in the case of `COc1cc(/C=C(\C#N)C(=O)Nc2ccc(C(=O)O)cc2)ccc1OC(=O)c1cccc(F)c1` it was 7.08 µM [falling, full curve].
Still for that read-out and setting: in the case of `COc1ccccc1C(C)NC(=O)c1ccc(C)o1` (stereo unspecified) it was 2.06 µM [falling, single point].
As to `CCC(=O)Nc1c(S(=O)(=O)c2ccccc2)c2nc3ccccc3nc2n1Cc1ccccc1`, the AC50 by setting is: under setting [1], 9.2 µM [falling, partial curve]; under setting [2], 8.2 µM [rising, partial curve, poor fit].
As to `CC(C)c1ccc(-c2cc(C(=O)N3N=C(C(F)F)CC3(O)C(F)F)c3ccccc3n2)cc1` (stereo unspecified), under setting [1], the concentration at half-maximal activity (AC50) was 0.116 µM [rising, full curve, poor fit].
The same measure, in the same setting: in the case of `O=C(C(=O)N1CCN(c2ccccc2Cl)CC1)c1c[nH]c2ccccc12` it was 15.8 µM [falling, single point]; in that of `O=C(CSc1nc2ccccc2c(=O)n1-c1ccccc1)N1CCN(CCO)CC1`, 3.55 µM [rising, full curve, poor fit].
The same measure, in the same setting: in the case of `CC(C)NC(=O)/C(C#N)=C\c1ccc(N(C)C)c(Br)c1` it was 35.5 µM [falling, single point]; in that of `COc1ccc(OCCN(C)C(=O)c2cccc(S(=O)(=O)N(C)c3ccccc3)c2)cc1`, 0.517 µM [rising, partial curve, poor fit].
Same read-out and setting: with `CCOC(=O)c1oc2ccc(/C=N/O)c(Cl)c2c1C` the figure was 2.82 µM [rising, full curve, poor fit].
As for `COc1ccc(-c2nn(CCC#N)cc2/C=N/O)cc1OC`, the half-maximal activity concentration (AC50) under setting [1] was 12.6 µM [rising, partial curve].
Turning to `CC1C(=O)C(C)C(c2ccc(Br)cc2)NC1c1ccc(Br)cc1` (stereo unspecified), the concentration at half-maximal activity (AC50) under setting [1] was 31.6 µM [rising, single point].
Still for that read-out and setting: with `CC1(CC(=O)N/N=C/c2ccc(-c3ccc(Cl)cc3)o2)OCCO1` the figure was 0.461 µM [rising, full curve, poor fit]; with `O=C(C1=C(O)C(=O)N(CCCN2CCOCC2)C1c1ccccn1)c1cccs1` (stereo unspecified), 35.5 µM [falling, single point].
In the case of `O=C(CN1C(=O)NC2(CCCC2)C1=O)Nc1ccccc1N1CCCCC1`, under setting [1], the AC50 was 1.03 µM [falling, full curve].
Same read-out and setting: in the case of `COc1ccccc1OCCCC(=O)Nc1ccc2c(c1)OCCO2` it was 22.4 µM [falling, partial curve, poor fit]; in that of `CN(CC(=O)Nc1ccc(Cl)cc1)C(=O)c1ccc(S(=O)(=O)Nc2ccccc2)cc1`, 25.9 µM [falling, single point]; in that of `Cc1ccc(NC(=O)C2OCCc3ccccc32)cc1C` (stereo unspecified), 7.08 µM [rising, full curve, poor fit].
As to `COC(=O)N1CC(c2ccccc2)CC1=O` (stereo unspecified), the AC50 by setting is: under setting [1], 0.517 µM [falling, full curve, poor fit]; under setting [2], 0.92 µM [rising, full curve, poor fit].
With `Cc1nnc(SCc2nnc(-c3ccccc3)o2)n(N)c1=O`, under setting [1], the AC50 is 29.1 µM [rising, single point].
On to `Cc1cnc(=O)[nH]c1SCC(=O)c1ccc(F)cc1`, for which the AC50 under setting [1] is 0.112 µM [rising, full curve, poor fit].
Still for that read-out and setting: in the case of `Cc1ccccc1C(C)NC(=O)COC(=O)Cn1cc(C(F)(F)F)ccc1=O` (stereo unspecified) it was 7.31 µM [rising, partial curve, poor fit]; in that of `O=C(Nc1ccccc1)C1=C[C@H](c2csc3ccccc23)C[C@H](OCc2ccc(CO)cc2)O1`, 11.2 µM [falling, partial curve].
Same read-out and setting: with `CCOC(=O)N1CCC(NC(=O)c2ccccc2C(=O)O)CC1` the figure was 35.5 µM [rising, single point]; with `Cc1cc(=O)oc2cc(NC(=O)c3cccc(F)c3)ccc12`, 0.1 µM [rising, full curve, poor fit].
Still for that read-out and setting: with `COc1cccc(-c2nnc(SCC(=O)Nc3ccc4c(c3)OCCO4)n2Cc2ccco2)c1` the figure was 32.6 µM [falling, partial curve, poor fit]; with `COc1cc(C2C3C(=O)N(Cc4ccccc4)C(=O)C3ON2c2ccccc2)cc(OC)c1OC` (stereo unspecified), 11.2 µM [rising, partial curve, poor fit]; with `CC(=O)Nc1cccc(Oc2nc(-c3ccccn3)nc3ccccc23)c1`, 35.5 µM [falling, partial curve, poor fit].
`Cc1nc(NCCc2ccccc2)c2nnn(Cc3ccccc3)c2n1`: the AC50 under setting [1] is 10 µM [rising, partial curve].
The same measure, in the same setting: in the case of `O=C(c1ccc(F)cc1)N1CCC(c2ccccc2)C1` (stereo unspecified) it was 14.1 µM [falling, single point].
Same read-out and setting: with `O=c1c2ccccc2oc2nc(-c3cccs3)n(CCc3ccccc3)c(=O)c12` the figure was 1.64 µM [falling, full curve, poor fit]; with `NC(=O)c1ccc(NC(=O)CS(=O)(=O)c2cn(CC(=O)N3CCCC3)c3ccccc23)cc1`, 1.58 µM [rising, partial curve, poor fit]; with `Cc1sc2c(c1C)C(=O)NC(c1cccc(O)c1)N2` (stereo unspecified), 12.6 µM [falling, partial curve].
The same measure, in the same setting: with `CC1CCCCN1S(=O)(=O)c1ccc(S(=O)(=O)N(Cc2ccccc2)Cc2ccco2)cc1` (stereo unspecified) the figure was 9.2 µM [rising, partial curve]; with `COc1cc(OC)cc(C(=O)Nc2ccc3c(c2)N(C2CCCC2)C(=O)c2ccccc2S3)c1`, 12.6 µM [falling, partial curve, poor fit]; with `Cc1nc(Nc2nc(CSc3nc4ccccc4[nH]3)cc(=O)[nH]2)nc2ccccc12`, 13 µM [falling, partial curve, poor fit].
In the case of `CC(c1ccccc1)N1C(=O)/C(=C/c2ccncc2)SC1=S` (stereo unspecified), under setting [1], the AC50 was 12.6 µM [falling, single point].
On to `O=C(O)CCc1ccc(-c2cccs2)n1NC(=O)c1ccccc1Br`, for which the AC50 under setting [1] was 4.61 µM [falling, partial curve, poor fit].
On to `CC(=O)c1cccc(NC(=O)N2CCCC2C(=O)NCc2ccc(C)cc2)c1` (stereo unspecified), for which, under setting [1], the half-maximal activity concentration (AC50) is 25.9 µM [rising, single point].
Turning to `COc1ccc(OC)c(C2(O)CSC(=Nc3cccnc3)N2Cc2ccco2)c1` (stereo unspecified), under setting [1], the half-maximal activity concentration (AC50) was 35.5 µM [falling, partial curve, poor fit].
The same measure, in the same setting: with `COc1ccc(/C=C2\SC(=S)N(CCC(=O)NC3C=CS(=O)(=O)C3)C2=O)cc1` (stereo unspecified) the figure was 0.355 µM [falling, full curve].

The values above are taken from PubChem BioAssay AID493014 (National Center for Advancing Translational Sciences (NCATS), 2011).
